The supplement of paper PMC10849652
The other results are listed elsewhere or left out.

Amino acid sequences for entries named in this document (tags omitted). A change or cut given only in a name is not applied to a line headed by its entry.
UniProt Q9Y5W9: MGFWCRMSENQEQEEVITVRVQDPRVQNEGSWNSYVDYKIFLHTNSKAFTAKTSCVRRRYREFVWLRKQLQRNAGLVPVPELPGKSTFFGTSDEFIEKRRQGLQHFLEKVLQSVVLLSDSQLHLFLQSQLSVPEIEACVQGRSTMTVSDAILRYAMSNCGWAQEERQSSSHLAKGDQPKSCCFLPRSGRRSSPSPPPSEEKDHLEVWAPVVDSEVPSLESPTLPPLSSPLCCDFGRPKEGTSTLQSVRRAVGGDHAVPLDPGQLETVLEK
UniProt O60641: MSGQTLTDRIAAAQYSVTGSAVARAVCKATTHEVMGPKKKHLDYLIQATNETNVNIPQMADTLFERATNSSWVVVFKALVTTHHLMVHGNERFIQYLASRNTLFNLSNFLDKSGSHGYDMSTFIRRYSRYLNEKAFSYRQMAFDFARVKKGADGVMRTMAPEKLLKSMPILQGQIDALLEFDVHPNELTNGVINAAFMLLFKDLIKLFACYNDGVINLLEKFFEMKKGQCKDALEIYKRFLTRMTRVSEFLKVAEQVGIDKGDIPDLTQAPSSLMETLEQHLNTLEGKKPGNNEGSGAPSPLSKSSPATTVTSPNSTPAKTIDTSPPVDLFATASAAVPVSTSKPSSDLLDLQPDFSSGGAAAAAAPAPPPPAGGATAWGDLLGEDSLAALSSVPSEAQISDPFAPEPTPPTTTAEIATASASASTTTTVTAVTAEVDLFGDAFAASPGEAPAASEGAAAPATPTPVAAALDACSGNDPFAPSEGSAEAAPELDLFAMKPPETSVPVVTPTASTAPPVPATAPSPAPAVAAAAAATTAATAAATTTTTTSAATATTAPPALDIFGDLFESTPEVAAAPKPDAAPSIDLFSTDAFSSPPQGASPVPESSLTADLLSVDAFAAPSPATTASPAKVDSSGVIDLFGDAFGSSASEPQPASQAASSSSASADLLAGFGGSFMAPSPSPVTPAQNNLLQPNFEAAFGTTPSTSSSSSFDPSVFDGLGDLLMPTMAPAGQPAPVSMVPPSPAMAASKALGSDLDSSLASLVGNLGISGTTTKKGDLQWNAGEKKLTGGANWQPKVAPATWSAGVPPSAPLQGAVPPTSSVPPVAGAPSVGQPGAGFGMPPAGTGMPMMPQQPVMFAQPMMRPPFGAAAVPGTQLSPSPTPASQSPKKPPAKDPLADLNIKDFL
UniProt O00161: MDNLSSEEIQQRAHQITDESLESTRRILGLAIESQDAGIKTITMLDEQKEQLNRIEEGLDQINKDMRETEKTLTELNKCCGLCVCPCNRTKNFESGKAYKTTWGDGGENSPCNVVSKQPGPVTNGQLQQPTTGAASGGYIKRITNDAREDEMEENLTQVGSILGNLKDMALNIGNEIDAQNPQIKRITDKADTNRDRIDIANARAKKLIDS
UniProt Q9H4L7: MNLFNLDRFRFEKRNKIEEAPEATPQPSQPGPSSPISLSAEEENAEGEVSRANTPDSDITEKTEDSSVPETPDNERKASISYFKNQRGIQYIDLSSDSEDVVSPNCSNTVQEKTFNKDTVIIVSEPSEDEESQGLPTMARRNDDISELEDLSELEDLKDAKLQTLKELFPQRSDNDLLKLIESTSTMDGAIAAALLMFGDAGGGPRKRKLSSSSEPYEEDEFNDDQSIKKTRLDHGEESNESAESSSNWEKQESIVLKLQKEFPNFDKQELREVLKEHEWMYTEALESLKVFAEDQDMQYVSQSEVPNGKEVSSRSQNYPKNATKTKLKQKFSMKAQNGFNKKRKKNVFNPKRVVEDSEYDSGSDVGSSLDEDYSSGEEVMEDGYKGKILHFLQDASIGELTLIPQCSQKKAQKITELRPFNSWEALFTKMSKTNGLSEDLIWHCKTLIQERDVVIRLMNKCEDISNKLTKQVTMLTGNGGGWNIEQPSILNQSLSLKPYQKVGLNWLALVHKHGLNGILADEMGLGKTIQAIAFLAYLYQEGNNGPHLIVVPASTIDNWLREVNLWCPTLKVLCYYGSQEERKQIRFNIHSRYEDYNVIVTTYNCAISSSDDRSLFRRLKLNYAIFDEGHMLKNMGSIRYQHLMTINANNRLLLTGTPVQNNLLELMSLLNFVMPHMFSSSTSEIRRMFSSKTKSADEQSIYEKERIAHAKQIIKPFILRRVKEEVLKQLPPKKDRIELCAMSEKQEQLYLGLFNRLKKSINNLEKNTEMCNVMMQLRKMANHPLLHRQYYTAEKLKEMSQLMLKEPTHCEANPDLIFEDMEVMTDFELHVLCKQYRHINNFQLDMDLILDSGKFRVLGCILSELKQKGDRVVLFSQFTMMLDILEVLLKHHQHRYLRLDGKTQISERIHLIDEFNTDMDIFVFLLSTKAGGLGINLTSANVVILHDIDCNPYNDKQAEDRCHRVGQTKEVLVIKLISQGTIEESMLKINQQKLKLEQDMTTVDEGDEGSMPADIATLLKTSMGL
UniProt Q13596, whole entry, looked up: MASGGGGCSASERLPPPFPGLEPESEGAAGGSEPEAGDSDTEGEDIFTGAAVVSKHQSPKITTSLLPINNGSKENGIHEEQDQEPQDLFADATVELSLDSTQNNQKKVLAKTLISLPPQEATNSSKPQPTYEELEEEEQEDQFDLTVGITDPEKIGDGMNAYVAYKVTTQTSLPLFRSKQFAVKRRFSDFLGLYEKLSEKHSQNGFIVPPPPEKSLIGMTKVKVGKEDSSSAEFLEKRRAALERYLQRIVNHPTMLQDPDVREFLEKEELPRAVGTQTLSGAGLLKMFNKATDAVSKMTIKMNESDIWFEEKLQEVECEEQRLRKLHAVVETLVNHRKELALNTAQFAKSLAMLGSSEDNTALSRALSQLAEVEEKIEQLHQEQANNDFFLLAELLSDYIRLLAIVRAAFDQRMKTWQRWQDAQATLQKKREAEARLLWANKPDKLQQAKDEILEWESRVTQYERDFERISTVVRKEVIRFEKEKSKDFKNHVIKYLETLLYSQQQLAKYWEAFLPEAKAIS
UniProt Q13424: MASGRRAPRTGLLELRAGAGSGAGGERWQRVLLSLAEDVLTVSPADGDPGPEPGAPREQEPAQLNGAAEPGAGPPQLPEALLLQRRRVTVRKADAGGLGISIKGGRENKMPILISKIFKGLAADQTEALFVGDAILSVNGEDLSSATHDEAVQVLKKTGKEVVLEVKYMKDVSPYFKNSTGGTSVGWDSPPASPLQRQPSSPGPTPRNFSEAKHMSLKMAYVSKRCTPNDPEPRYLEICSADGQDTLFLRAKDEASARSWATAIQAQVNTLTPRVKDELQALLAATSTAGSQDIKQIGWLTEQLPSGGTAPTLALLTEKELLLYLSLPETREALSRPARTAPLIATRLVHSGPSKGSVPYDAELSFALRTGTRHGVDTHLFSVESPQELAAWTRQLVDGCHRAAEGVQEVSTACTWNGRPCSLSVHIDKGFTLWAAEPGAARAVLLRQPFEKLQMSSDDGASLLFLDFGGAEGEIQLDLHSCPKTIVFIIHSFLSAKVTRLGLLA
UniProt Q15506: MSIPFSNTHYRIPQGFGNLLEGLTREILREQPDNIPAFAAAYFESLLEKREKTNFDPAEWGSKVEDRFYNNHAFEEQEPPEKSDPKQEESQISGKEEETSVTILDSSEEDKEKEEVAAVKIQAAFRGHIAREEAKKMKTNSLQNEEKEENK
UniProt Q99523, whole entry, looked up: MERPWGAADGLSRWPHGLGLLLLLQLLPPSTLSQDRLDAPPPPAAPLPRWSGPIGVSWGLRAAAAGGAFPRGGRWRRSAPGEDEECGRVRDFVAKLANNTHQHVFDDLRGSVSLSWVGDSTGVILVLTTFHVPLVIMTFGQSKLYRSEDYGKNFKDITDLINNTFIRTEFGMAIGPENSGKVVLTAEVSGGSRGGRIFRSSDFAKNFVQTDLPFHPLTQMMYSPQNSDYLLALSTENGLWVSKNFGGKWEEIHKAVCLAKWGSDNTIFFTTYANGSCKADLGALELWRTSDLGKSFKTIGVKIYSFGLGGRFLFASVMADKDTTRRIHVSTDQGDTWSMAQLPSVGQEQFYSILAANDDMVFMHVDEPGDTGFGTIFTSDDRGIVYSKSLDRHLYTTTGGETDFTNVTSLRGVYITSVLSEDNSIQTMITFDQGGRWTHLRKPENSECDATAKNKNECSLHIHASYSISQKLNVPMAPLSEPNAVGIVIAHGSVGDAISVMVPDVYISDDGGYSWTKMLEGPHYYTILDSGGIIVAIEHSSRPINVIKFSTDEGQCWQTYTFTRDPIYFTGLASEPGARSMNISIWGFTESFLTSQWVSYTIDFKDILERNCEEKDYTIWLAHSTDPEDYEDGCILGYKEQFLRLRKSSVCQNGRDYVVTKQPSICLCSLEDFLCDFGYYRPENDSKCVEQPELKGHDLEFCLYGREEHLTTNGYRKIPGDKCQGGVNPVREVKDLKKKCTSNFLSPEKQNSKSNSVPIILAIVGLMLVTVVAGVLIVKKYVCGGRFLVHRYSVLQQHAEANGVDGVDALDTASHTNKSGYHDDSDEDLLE
UniProt O76070, whole entry, looked up: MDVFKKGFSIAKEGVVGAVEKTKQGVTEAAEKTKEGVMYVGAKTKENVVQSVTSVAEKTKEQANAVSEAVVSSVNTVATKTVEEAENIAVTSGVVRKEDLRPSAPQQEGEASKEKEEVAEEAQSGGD
UniProt P53814: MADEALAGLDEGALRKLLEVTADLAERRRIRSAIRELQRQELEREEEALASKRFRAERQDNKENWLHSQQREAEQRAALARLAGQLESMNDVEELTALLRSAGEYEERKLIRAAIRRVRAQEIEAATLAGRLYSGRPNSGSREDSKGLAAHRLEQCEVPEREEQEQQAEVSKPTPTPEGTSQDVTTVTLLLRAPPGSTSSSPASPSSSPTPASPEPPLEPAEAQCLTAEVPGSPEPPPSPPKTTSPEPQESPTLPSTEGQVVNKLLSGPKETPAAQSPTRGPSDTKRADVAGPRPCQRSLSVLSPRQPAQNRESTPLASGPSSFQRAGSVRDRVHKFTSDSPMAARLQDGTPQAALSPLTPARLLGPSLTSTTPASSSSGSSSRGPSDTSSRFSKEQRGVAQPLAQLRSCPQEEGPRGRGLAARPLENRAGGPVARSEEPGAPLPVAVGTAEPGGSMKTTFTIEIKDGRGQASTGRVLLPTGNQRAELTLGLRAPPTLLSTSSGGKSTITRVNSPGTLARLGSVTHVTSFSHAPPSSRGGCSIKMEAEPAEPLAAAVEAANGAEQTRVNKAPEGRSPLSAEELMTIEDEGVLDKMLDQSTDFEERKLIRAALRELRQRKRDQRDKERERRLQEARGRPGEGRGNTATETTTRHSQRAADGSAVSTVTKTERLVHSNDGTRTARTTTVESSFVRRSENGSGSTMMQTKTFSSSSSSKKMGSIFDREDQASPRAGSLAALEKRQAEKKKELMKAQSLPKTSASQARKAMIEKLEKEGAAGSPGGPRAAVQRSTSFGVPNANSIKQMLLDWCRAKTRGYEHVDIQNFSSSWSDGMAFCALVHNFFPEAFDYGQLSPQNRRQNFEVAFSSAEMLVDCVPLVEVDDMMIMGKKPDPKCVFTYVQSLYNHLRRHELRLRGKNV
UniProt Q8IY18: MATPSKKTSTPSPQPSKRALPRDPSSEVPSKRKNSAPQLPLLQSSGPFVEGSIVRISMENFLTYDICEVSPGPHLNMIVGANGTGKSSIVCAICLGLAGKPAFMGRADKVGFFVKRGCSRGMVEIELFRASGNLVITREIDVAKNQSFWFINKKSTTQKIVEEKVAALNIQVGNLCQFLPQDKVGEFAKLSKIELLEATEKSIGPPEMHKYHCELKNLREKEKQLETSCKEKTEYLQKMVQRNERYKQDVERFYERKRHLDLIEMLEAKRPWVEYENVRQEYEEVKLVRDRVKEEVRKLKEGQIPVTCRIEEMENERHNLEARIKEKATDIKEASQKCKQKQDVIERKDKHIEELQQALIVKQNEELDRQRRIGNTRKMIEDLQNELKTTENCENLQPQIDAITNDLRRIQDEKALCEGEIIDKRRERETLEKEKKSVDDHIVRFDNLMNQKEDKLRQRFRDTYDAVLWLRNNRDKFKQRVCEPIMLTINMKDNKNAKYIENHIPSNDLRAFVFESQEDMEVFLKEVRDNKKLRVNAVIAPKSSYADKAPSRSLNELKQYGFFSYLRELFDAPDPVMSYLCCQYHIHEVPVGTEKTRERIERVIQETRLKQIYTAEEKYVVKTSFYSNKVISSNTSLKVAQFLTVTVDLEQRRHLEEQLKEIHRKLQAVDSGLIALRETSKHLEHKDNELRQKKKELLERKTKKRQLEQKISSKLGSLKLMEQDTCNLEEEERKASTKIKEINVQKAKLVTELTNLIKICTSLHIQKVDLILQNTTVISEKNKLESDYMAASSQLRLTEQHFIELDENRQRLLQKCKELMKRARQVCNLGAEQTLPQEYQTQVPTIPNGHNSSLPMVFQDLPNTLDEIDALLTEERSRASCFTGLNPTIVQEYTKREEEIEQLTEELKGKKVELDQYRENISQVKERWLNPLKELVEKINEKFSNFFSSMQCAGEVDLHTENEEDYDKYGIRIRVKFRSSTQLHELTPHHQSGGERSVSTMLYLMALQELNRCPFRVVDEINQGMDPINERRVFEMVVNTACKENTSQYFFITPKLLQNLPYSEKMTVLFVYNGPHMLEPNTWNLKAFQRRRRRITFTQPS

Key:
Assay in all cases: log2 fold change, soluble protein after heating vs DMSO (PISA); higher = thermal stabilisation; K562 lysate, 10 uM; active = over 0.2 and 3.5 SD of the protein, either way, in both replicates (recomputed)
vemurafenib = compound: CCCS(=O)(=O)Nc1ccc(F)c(C(=O)c2c[nH]c3ncc(-c4ccc(Cl)cc4)cc23)c1F [vemurafenib]
Summary of the method: (§1)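 Log-two fold change in thermal stability relative to solvent controls is reported from duplicates. For each sample, crude K562 extract from dounce-homogenised pellets in PBS pH 7.4 with 1 mM MgCl2, at 1 mg/mL protein, was treated with 10 μM compound for 30 min. Aliquots heated for 3 min across 48°C-58°C were pooled, brought to 0.5% NP-40 at 4°C and cleared at 21,000xg for 90 min. The supernatant was quantified by TMTpro 16plex LC-MS/MS with channel sums equalised.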

[1] = compound: CCCS(=O)(=O)Nc1ccc(F)c(C(=O)c2c[nH]c3ncc(Cl)cc23)c1F
Summary of the method: as §1

barasertib = compound: CCN(CCCOc1ccc2c(Nc3cc(CC(=O)Nc4cccc(F)c4)[nH]n3)ncnc2c1)CCOP(=O)(O)O [barasertib]
Summary of the method: as §1

[2] = compound: CC[C@@H]1C(=O)N(C)c2cnc(Nc3ccc(C(=O)NC4CCN(C)CC4)cc3OC)nc2N1C1CCCC1
Summary of the method: as §1

volasertib = compound: CC[C@@H]1C(=O)N(C)c2cnc(Nc3ccc(C(=O)N[C@H]4CC[C@H](N5CCN(CC6CC6)CC5)CC4)cc3OC)nc2N1C(C)C [volasertib]
Summary of the method: as §1

[3] = compound: CCn1c(C(=O)N(C2CC2)C2CC2)cc2c3c(ncn3C)c(Nc3cc(C)n(C)n3)nc21
Summary of the method: as §1

[4] = compound: CCn1cc(-c2ccnc3[nH]c(-c4cccc(CN(C)C)c4)cc23)c(-c2ccc(NC(=O)N(C)C)cc2)n1
Summary of the method: as §1

[5] = compound: CN1CCC(CNc2ccc3ncc(-c4cccc(OC(F)(F)F)c4)n3n2)CC1
Summary of the method: as §1

saracatinib = compound: CN1CCN(CCOc2cc(OC3CCOCC3)c3c(Nc4c(Cl)ccc5c4OCO5)ncnc3c2)CC1 [saracatinib]
Summary of the method: as §1

sotrastaurin = compound: CN1CCN(c2nc(C3=C(c4c[nH]c5ccccc45)C(=O)NC3=O)c3ccccc3n2)CC1 [sotrastaurin]
Summary of the method: as §1

Row | Target | log2 fold change (vemurafenib) | log2 fold change [1] | log2 fold change (barasertib) | log2 fold change [2] | log2 fold change (volasertib) | log2 fold change [3] | log2 fold change [4] | log2 fold change [5] | log2 fold change (saracatinib) | log2 fold change (sotrastaurin)
1 | SOX5 (UniProt P35711) | inactive: 0.141 | inactive: 0.175 | inactive: 0.048 | inactive: 0.176 | inactive: -0.034 | inactive: 0.049 | inactive: -0.043 | inactive: -0.043 | inactive: 0.076 | inactive: -0.131
2 | SP100 isoform 4 (UniProt P23497) | inactive: 0.015 | inactive: -0.014 | inactive: -0.044 | inactive: 0.035 | inactive: 0.004 | inactive: 0.018 | inactive: -0.001 | inactive: -0.002 | inactive: -0.011 | inactive: 0.017
3 | SNX11 (UniProt Q9Y5W9) | inactive: -0.02 | inactive: -0.004 | inactive: -0.036 | inactive: 0.042 | inactive: 0.056 | inactive: -0.055 | inactive: -0.081 | inactive: 0.074 | inactive: -0.023 | inactive: -0.003
4 | SNX17 (UniProt Q15036) | inactive: -0.015 | inactive: 0.083 | inactive: 0.007 | inactive: 0 | inactive: -0.008 | inactive: 0 | inactive: 0.01 | inactive: -0.061 | inactive: 0.014 | inactive: 0.004
5 | SMG8 isoform 2 (UniProt Q8ND04) | inactive: 0.032 | inactive: 0.047 | inactive: -0.045 | inactive: -0.013 | inactive: -0.033 | inactive: 0.02 | inactive: 0.096 | inactive: -0.09 | inactive: 0.056 | inactive: -0.03
6 | SNW1 (UniProt Q13573) | inactive: 0.019 | inactive: 0.01 | inactive: -0.019 | inactive: 0.07 | inactive: -0.021 | inactive: 0 | inactive: 0.191 | inactive: -0.037 | inactive: 0.016 | inactive: -0.037
7 | SMNDC1 (UniProt O75940) | inactive: 0.002 | inactive: -0.03 | inactive: -0.046 | inactive: 0.066 | inactive: 0.027 | inactive: -0.02 | inactive: 0.055 | inactive: -0.011 | inactive: -0.021 | inactive: 0.048
8 | SMG9 (UniProt Q9H0W8) | inactive: -0.001 | inactive: 0.014 | inactive: 0.056 | inactive: 0.073 | inactive: -0.079 | inactive: -0.018 | inactive: -0.081 | inactive: 0.093 | inactive: 0.011 | inactive: 0.046
9 | SNAP91 (UniProt O60641) | inactive: -0.143 | inactive: -0.039 | inactive: -0.032 | inactive: -0.001 | inactive: -0.062 | inactive: 0.056 | inactive: -0.078 | inactive: -0.014 | inactive: 0 | inactive: -0.027
10 | SNRNP200 (UniProt O75643) | inactive: 0.012 | inactive: 0.005 | inactive: -0.009 | inactive: -0.007 | inactive: -0.015 | inactive: 0.004 | inactive: -0.057 | inactive: 0.001 | inactive: 0.006 | inactive: 0.025
11 | SMC4 (UniProt Q9NTJ3) | inactive: 0.002 | inactive: 0.001 | inactive: 0.022 | inactive: -0.059 | inactive: -0.041 | inactive: 0.006 | inactive: 0.053 | inactive: -0.118 | inactive: 0.015 | inactive: 0.012
12 | SMG1 (UniProt Q96Q15) | inactive: 0.059 | inactive: 0.031 | inactive: 0.08 | inactive: 0.017 | inactive: -0.027 | inactive: -0.026 | inactive: 0.003 | inactive: -0.072 | inactive: 0.039 | inactive: 0.032
13 | SNAP23 (UniProt O00161) | inactive: 0.013 | inactive: -0.025 | inactive: 0.041 | inactive: -0.009 | inactive: 0.034 | inactive: 0.033 | inactive: 0.025 | inactive: 0.014 | inactive: -0.011 | inactive: -0.001
14 | SP4 (UniProt Q02446) | inactive: -0.063 | inactive: 0.081 | inactive: 0.108 | inactive: -0.053 | inactive: -0.085 | inactive: 0.014 | inactive: -0.37 | inactive: 0.055 | inactive: 0.025 | inactive: -0.041
15 | SMARCAD1 isoform 2 (UniProt Q9H4L7) | inactive: 0.014 | inactive: 0.034 | inactive: 0.021 | inactive: -0.039 | inactive: -0.048 | inactive: 0.017 | inactive: -0.005 | inactive: -0.057 | inactive: 0.008 | inactive: 0.002
16 | SNX1 (UniProt Q13596) | inactive: 0.01 | inactive: 0.018 | inactive: 0.013 | inactive: -0.009 | inactive: -0.013 | inactive: -0.002 | inactive: -0.022 | inactive: -0.018 | inactive: 0.007 | inactive: -0.009
17 | SMU1 (UniProt Q2TAY7) | inactive: -0.016 | inactive: 0.04 | inactive: 0.025 | inactive: -0.055 | inactive: -0.024 | inactive: 0.015 | inactive: -0.005 | inactive: 0.014 | inactive: -0.034 | inactive: -0.036
18 | SNX6, A0A0A0MRI2 | inactive: 0.005 | inactive: 0.025 | inactive: 0.006 | inactive: -0.111 | inactive: -0.05 | inactive: 0.026 | inactive: 0.21 | inactive: -0.126 | inactive: -0.002 | inactive: -0.013
19 | SNTA1 (UniProt Q13424) | inactive: 0.04 | inactive: 0.007 | inactive: 0.045 | inactive: -0.058 | inactive: -0.045 | inactive: 0.042 | inactive: -0.027 | inactive: 0.03 | inactive: 0.027 | inactive: 0.034
20 | SPA17 (UniProt Q15506) | inactive: -0.013 | inactive: -0.004 | inactive: 0.021 | inactive: 0.005 | inactive: 0.09 | inactive: 0.022 | active: -0.639 | inactive: 0.245 | inactive: 0.004 | inactive: 0.021
21 | SORT1 (UniProt Q99523) | inactive: 0.002 | inactive: -0.001 | inactive: 0.024 | inactive: -0.018 | inactive: 0.026 | inactive: -0.025 | inactive: -0.014 | inactive: 0.025 | inactive: 0.014 | inactive: 0.028
22 | SORD (UniProt Q00796) | inactive: -0.006 | inactive: -0.008 | inactive: -0.015 | inactive: -0.021 | inactive: 0.03 | inactive: 0 | inactive: -0.025 | inactive: 0.067 | inactive: -0.032 | inactive: 0.005
23 | SNUPN (UniProt O95149) | inactive: -0.008 | inactive: 0.007 | inactive: 0.06 | inactive: -0.082 | inactive: 0.04 | inactive: 0.051 | inactive: -0.024 | inactive: -0.036 |  | inactive: 0.028
24 | SNCG (UniProt O76070) | inactive: -0.001 | inactive: -0.004 | inactive: 0.054 | inactive: 0.074 | inactive: 0.051 | inactive: -0.056 | inactive: -0.061 | inactive: 0.073 | inactive: -0.028 | inactive: -0.02
25 | SMTN isoform 6 (UniProt P53814) | inactive: 0.021 | inactive: 0.061 | inactive: 0.018 | inactive: -0.007 | inactive: -0.078 | inactive: -0.026 | inactive: -0.036 | inactive: -0.006 | inactive: 0.013 | inactive: -0.051
26 | SMC5 (UniProt Q8IY18) | inactive: 0.017 | inactive: -0.001 | inactive: 0.025 | inactive: 0.021 | inactive: 0.002 | inactive: -0.019 | inactive: -0.075 | inactive: 0.055 | inactive: 0.014 | inactive: -0.023
27 | SMARCAL1 (UniProt Q9NZC9) | inactive: -0.011 | inactive: 0.043 | inactive: 0.152 | inactive: 0.102 | inactive: -0.006 | inactive: 0.006 | inactive: 0.087 | inactive: -0.071 | inactive: 0.013 | inactive: 0.041

Whole records as entered above. Order of values: log2 fold change (vemurafenib)	log2 fold change [1]	log2 fold change (barasertib)	log2 fold change [2]	log2 fold change (volasertib)	log2 fold change [3]	log2 fold change [4]	log2 fold change [5]	log2 fold change (saracatinib)	log2 fold change (sotrastaurin)
SMTN isoform 6 (UniProt P53814) in the list: inactive: 0.021	inactive: 0.061	inactive: 0.018	inactive: -0.007	inactive: -0.078	inactive: -0.026	inactive: -0.036	inactive: -0.006	inactive: 0.013	inactive: -0.051
SNAP23 (UniProt O00161) in the list: inactive: 0.013	inactive: -0.025	inactive: 0.041	inactive: -0.009	inactive: 0.034	inactive: 0.033	inactive: 0.025	inactive: 0.014	inactive: -0.011	inactive: -0.001
